{"source": "paper PMC9927451", "note": "These are yes or no findings as the source states them, for the method shown. In cells and extracts the contact can be indirect. These calls come from enrichment with a bait or labelling near it, and not all partners need be listed."}
{"target": "FLAG-ParB (P. aeruginosa)", "assay": "affinity purification with mass spectrometry; clarified lysates of P. aeruginosa with flag-parB (WT strain as control) on Dynabeads coupled with anti-FLAG antibodies; washed with 1x IP buffer; eluted with 0.1 M glycine pH 3.5; mass spectrometry"}
{"binder": "ParC (PA4964), endogenous (protein, UniProt Q9HUK1 1-754) MSESLDLSLEGVERRSLAEFTEQAYLNYSMYVIMDRALPHIGDGLKPVQRRIVYAMSELGLDADSKHKKSARTVGDVLGKFHPHGDSACYEAMVLMAQPFSYRYPLVDGQGNWGAPDDPKSFAAMRYTEARLSRYSEVLLSELGQGTVDWVPNFDGTLDEPAVLPARLPNLLLNGTTGIAVGMATDVPPHNLREVASACVRLLDQPGATVAELCEHVPGPDFPTEAEIITPRADLQKVYETGRGSVRMRAVYRVEDGDIVIHALPHQVSGSKVLEQIAGQMQAKKLPMVADLRDESDHENPTRIVIIPRSNRVDVEELMTHLFATTDLETSYRVNLNIIGLDGKPQVKDLRQLLSEWLQFRIGTVRRRLQFRLDKVERRLHLLDGLLIAFLNLDEVIHIIRTEDQPKAVLMERFELSEVQADYILDTRLRQLARLEEMKIRGEQEELLKEQKRLQTLLGSEAKLKKLVREELIKDAETYGDDRRSPIVARAEARALSETELMPTEPVTVVLSEKGWVRCAKGHDIDAAGLSYKAGDGFKAAAPGRSNQYAVFIDSTGRSYSLPAHSLPSARGQGEPLSGRLTPPPGASFECVLLPDDDALFVIASDAGYGFVVKGEDLQAKNKAGKALLSLPNGSAVVAPRPVRDVEQDWLAAVTTEGRLLLFKVSDLPQLGKGKGNKIIGIPGERVASREEYLTDLAVLPAGATLVLQAGKRTLSLKGDDLEHYKGERGRRGNKLPRGFQRVDSLLVDIPPQD", "binding": "binds"}
{"binder": "HupB, endogenous (protein, UniProt P05384 1-90) MNKSELIDAIAASADIPKAVAGRALDAVIESVTGALKAGDSVVLVGFGTFAVKERAARTGRNPQTGKPIKIAAAKIPGFKAGKALKDAVN", "binding": "binds"}
{"binder": "PA1533, endogenous (protein, UniProt Q9I3I0 1-108) MMKGGMAGLMKQAQQMQEKMQKMQEELANAEVTGQSGAGLVSVVMTGRHDVKRVSLDDSLMQEDKEILEDLIAAAVNDAVRKIEQNNQEKMSGFTSGMQLPPGFKMPF", "binding": "binds"}
{"binder": "NdpA (PA3849), endogenous (protein, UniProt Q9HXF7 1-334) MPIHHAIVHLIEKKPDGTPAVLHARDAELGDSQAIENLLADLNESYNAKNKAWGFFQGESGAYPFSGWLGEYLEGDRDFVGFSREAVEHLQKLMEESNLSTGGHILFAHYQQGMTDYLAIALLHHSEGVAVNESLEVTPSRHLDLGQLHLAARINISEWRNNKQSKQYISFIKGKGGKKVSDYFRDFIGCQEGVDSPSETRTLLKAFSDFVESEDMAEEQAREKTETLVDYATSQARIGEPMTLDALSELMDDQQPRAFYDYIRNKDYGLSPEIPADKRTLNQFRRFTGRAEGLSISFEAHLLGSKVEYDEERDMLIIRQLPTQLKDQLKRRKD", "binding": "binds"}
{"binder": "ClpP2, endogenous (enzyme, UniProt Q9HYR9 1-201) MKTDDKDREGGDSHGAIGAKLMEYALKVRKVFVTGGVDEKMAKDVVQQLHILASISDDPIYMFVNSPGGHVESGDMIFDAIRFITPKVIMIGSGSVASAGALIYAAADKENRYSLPNTRFLLHQPSGGIQGPASNIEIYRREIVRMKERLDRIFAEATGQTPEKISADTERDFWLNAEEAVQYGLVNKIIVSEREITLPGQ", "binding": "binds"}
{"binder": "PyrG (PA3637), endogenous (enzyme, UniProt Q9HXZ4 1-542) MTRYIFVTGGVVSSLGKGIASASLAAILEARGLKITMLKLDPYINVDPGTMSPFQHGEVFVTQDGAETDLDLGHYERFVRTTMTQNNNFTTGRVYMDVLRKERRGDYLGATVQVIPHITDEIKRRIIKGAGDADVALVEIGGTVGDIESQPFLEAIRQLRVEIGAKRAMLMHLTLVPYIATAGETKTKPTQHSVKELRSIGLQPDVLVCRSDHPIDVSSRRKIALFTNVEERAVIALEDVDTIYRIPSVLHAQGLDDIVVERFGLECGQADLSEWDRVVDAKLNPEREVTIAMVGKYMELLDAYKSLIEAMTHAGIQSRTKVNLRYIDSEDIEQQGTSLLEGVDAILVPGGFGLRGVEGKISTVQYARENKIPYLGICLGMQVAVIEYARNVLGWSDANSTEFDKSSGHPVVGLITEWQDATGATEIRTEASDLGGTMRLGAQECQLQTGTLVHDCYAKDVIVERHRHRYEVNNNLLPQLEQAGLKISGRSGDGALVEVVEAPEHPWFVACQFHPEFTSTPRDGHPLFSGFVNAALKYSGKA", "binding": "binds"}
{"binder": "GlyA3 (PA4602), endogenous (enzyme, UniProt Q9HVI7 1-417) MFSRDLTLARYDAELFAAMEQEAQRQEEHIELIASENYTSPAVMEAQGSVLTNKYAEGYPHKRYYGGCEYVDIVEQLAIDRAKQLFGADYANVQPHAGSQANAAVYLALLSAGDTILGMSLAHGGHLTHGASVSSSGKLYNAVQYGIDANGLIDYDEVERLAVEHKPKMIVAGFSAYSQVLDFARFRAIADKVGAYLFVDMAHVAGLVAAGVYPNPVPFADVVTTTTHKTLRGPRGGLILARANEEIEKKLNSAVFPSAQGGPLEHVIAAKAVCFKEALQPEFKTYQQQVLKNAQSMAQVFLDRGFDVVSGGTQNHLFLLSLIKQDITGKDADAALGRAFITVNKNSVPNDPRSPFVTSGLRIGTPAVTTRGFKEAECRELAGWICDILENMGDESVVDGVREKVKAICAKFPVYGN", "binding": "binds"}
{"binder": "NadE (PA4920), endogenous (enzyme, UniProt Q9HUP3 1-275) MQQIQRDIAQALQVQPPFQSEADVQAQIARRIAFIQQCLKDSGLKTLVLGISGGVDSLTAGLLAQRAVEQLREQTGDQAYRFIAVRLPYQVQQDEADAQASLATIRADEEQTVNIGPSVKALAEQLEALEGLEPAKSDFVIGNIKARIRMVAQYAIAGARGGLVIGTDHAAEAVMGFFTKFGDGACDLAPLSGLAKHQVRALARALGAPENLVEKIPTADLEDLRPGHPDEASHGVTYAEIDAFLHGQPLREEAARVIVDTYHKTQHKRELPKAP", "binding": "binds"}
{"binder": "ArcB (PA5172), endogenous (enzyme, UniProt P08308 1-336) MAFNMHNRNLLSLMHHSTRELRYLLDLSRDLKRAKYTGTEQQHLKRKNIALIFEKTSTRTRCAFEVAAYDQGANVTYIDPNSSQIGHKESMKDTARVLGRMYDAIEYRGFKQEIVEELAKFAGVPVFNGLTDEYHPTQMLADVLTMREHSDKPLHDISYAYLGDARNNMGNSLLLIGAKLGMDVRIAAPKALWPHDEFVAQCKKFAEESGAKLTLTEDPKEAVKGVDFVHTDVWVSMGEPVEAWGERIKELLPYQVNMEIMKATGNPRAKFMHCLPAFHNSETKVGKQIAEQYPNLANGIEVTEDVFESPYNIAFEQAENRMHTIKAILVSTLADI", "binding": "binds"}
{"binder": "PA4465, endogenous (protein, UniProt Q9HVV3 1-286) MRLIIVSGRSGSGKSTALNVLEDNGFYCIDNLPASLLPDLAQRALLHTELLQPQVAVSIDARNLPSQLQRFPELLQEVRDNHINCDVLYLDADDETLLKRFSETRRRHPLTTDTRSLAEAIGDESQLLGPIADLADLKLDTTSLNLYQLRDTIKLRLLNKPEPGTAFLVESFGFKRGMPVDADLVFDVRCLPNPYWKPELRDHSGLEPEVREYLAAQPDVEEMYQDIVGYLNKWLPRFAASNRSYVTVAIGCTGGHHRSVYLAERIGAALRDSLKNVQIRHRDLSS", "binding": "binds"}
{"binder": "PmpR (PA0964), endogenous (protein, UniProt Q51423 1-248) MAGHSKWANIKHRKERQDAKKGKIFTKLIRELTVAARQGGGVPADNPRLRLAVDKALTANMTRDTIDRAIARGVGSNDADNMVELSYEGYAPSGVAIIVEAMTDNRNRTAAEVRHAFSKCGGNLGTDGSVAYMFERKGQISFAPGVDEEALMDAALEAGADDVVVNDDGSIDVFTTFADFISVNEALAAAGFKGDEAEVTMIPSTTATLDLETAQKVLKLIDMLEDLDDVQNVYSNADIPDDVMAQLG", "binding": "binds"}
